# Results as given in PMC7862700.
# The chains behind the UniProt entries cited, without tags or fusion partners. Where a name states a change or a piece, a line headed by the entry shows the natural chain unless it says otherwise.
# UniProt P50549: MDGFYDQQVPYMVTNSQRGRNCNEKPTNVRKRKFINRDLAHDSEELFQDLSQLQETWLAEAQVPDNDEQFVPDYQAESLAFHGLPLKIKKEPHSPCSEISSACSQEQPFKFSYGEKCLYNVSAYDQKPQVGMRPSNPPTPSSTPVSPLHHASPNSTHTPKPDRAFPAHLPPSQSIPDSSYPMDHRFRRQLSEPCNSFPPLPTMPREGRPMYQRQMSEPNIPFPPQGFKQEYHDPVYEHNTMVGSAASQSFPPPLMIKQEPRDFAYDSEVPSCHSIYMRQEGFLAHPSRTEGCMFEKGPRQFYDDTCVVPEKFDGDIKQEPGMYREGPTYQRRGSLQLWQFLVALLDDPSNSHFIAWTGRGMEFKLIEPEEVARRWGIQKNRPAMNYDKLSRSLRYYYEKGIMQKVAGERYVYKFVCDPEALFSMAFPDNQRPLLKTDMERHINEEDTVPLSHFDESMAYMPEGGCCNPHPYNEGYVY
# UniProt P32519: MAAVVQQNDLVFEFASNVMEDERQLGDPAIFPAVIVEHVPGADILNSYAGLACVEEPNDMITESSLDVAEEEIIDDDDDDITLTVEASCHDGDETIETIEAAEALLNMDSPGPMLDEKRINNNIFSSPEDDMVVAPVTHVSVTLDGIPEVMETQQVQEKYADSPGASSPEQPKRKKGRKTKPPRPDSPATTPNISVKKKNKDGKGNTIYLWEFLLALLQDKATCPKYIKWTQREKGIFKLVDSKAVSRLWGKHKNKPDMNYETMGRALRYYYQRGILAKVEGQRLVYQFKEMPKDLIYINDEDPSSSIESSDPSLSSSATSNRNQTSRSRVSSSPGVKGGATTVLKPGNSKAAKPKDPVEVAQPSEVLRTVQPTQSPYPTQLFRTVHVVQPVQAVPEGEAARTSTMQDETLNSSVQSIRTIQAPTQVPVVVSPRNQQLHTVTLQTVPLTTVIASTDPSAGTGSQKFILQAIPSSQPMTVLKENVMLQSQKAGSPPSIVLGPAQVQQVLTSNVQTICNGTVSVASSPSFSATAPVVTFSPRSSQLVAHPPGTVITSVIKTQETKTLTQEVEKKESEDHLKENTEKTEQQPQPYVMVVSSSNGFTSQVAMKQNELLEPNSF
# The entries are a selection whose mix differs from that of the whole data set. For some of these results: At the low end of the ranking, values are background and their order means little. Some of the results follow. For some of these results: The source does not settle which construct or isoform was used.
# How the values were obtained:
# Test in all cases: DAPPL (digital affinity profiling via proximity ligation, sequencing)
# Settings in all cases: 10 mM Tris-HCl pH 7.5, 50 mM NaCl, 1 mM DTT, 4% glycerol, room temperature, 30 min; GST-TFs on glutathione beads, 16-mer random dsDNA library, 0.1% …; high values mean tight binding; double strand, one strand shown; scale: fold enrichment (6-mer frequency, TF over GST control)
# ERG = target: T1, ERG (UniProt P11308)
# T1 sequence: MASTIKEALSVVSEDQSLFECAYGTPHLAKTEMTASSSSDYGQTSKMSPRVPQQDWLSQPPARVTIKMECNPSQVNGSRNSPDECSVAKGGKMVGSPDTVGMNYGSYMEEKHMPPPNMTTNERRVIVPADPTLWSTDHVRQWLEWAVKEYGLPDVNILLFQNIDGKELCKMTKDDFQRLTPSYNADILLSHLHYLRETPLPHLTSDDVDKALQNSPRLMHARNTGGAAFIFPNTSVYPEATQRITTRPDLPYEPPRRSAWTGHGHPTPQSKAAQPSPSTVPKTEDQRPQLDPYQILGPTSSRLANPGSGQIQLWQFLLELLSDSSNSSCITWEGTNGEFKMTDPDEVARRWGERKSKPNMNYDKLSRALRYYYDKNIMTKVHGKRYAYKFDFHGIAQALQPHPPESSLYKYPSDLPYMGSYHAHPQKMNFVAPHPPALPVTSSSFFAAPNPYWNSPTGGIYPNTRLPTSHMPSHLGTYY
# ETV4 = target: T2, ETV4 (UniProt P43268)
# T2 sequence: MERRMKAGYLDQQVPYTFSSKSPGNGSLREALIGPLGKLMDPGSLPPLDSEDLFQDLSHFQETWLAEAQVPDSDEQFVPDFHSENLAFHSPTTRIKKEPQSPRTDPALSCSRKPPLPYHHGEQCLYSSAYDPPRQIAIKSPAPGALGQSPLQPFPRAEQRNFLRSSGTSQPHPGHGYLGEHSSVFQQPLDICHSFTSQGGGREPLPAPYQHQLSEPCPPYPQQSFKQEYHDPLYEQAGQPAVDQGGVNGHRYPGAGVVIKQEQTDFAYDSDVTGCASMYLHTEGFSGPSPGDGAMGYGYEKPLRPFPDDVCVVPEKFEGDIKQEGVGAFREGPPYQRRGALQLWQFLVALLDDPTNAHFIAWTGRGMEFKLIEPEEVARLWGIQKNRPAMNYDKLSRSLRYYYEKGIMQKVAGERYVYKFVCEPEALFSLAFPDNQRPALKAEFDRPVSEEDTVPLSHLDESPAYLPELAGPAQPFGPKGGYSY
# ETV1 = ETV1 (UniProt P50549)
# ELF1 = ELF1 (UniProt P32519)
# ERF = target: T3, ERF (UniProt P50548)
# T3 sequence: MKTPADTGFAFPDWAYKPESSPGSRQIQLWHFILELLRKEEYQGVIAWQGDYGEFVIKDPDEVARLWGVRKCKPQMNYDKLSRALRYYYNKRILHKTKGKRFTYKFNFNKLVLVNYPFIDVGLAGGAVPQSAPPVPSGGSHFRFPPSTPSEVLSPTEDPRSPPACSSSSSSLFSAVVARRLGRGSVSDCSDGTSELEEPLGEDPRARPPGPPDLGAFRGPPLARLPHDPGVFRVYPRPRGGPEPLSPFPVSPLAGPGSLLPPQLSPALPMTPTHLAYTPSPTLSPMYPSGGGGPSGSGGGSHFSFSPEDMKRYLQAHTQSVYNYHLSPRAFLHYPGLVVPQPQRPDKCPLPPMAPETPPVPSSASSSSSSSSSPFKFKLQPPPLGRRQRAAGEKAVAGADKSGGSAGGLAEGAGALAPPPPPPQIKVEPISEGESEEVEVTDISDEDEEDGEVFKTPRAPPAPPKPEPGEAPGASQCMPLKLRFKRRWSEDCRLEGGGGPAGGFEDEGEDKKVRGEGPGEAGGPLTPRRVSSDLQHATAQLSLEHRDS
Sequence,binding signal (ERG),binding signal (ETV4),binding signal (ETV1),binding signal (ELF1),binding signal (ERF)
CTACAT,1.32,1.39,–,–,–
TATTTG,1.47,1.4,–,–,–
CTGCTG,1.11,1.42,–,–,–
TTAATC,1.17,1.19,–,–,–
AGCGAC,1.23,1.23,–,–,–
TCAAGC,1.01,0.994,0.955,–,–
GCTGCA,0.948,1.12,0.954,–,–
GTCCCC,1.23,1.15,–,–,–
TTGGCT,0.97,1.09,–,–,–
TCAAAC,1.26,1.23,1.29,–,–
CTGTAT,1.18,1.19,–,–,–
CCTCAG,1.21,1.32,–,–,–
CGTAAC,1.07,1.08,–,–,–
CGTTCC,1.45,1.42,1.47,–,–
GTTTCT,1.22,1.27,–,–,–
TTCCGA,1.66,1.49,1.63,–,–
GCAATA,0.984,1.05,–,–,–
GCGCTT,1.24,1.4,–,–,–
GCTTGG,1.09,1.13,–,–,–
ATTGCA,1.21,1.13,–,–,–
TAGAAA,1.04,1.01,–,–,–
CGGTTT,1.33,1.32,–,–,–
ACCGCA,1.11,1.22,–,–,–
CCGTTT,1.57,1.43,–,–,–

Sequence,binding signal (ERG),binding signal (ETV4),binding signal (ETV1),binding signal (ELF1),binding signal (ERF)
AATTCG,1.3,1.18,–,–,–
CACGTA,1.1,1.23,–,–,–
CAAGTT,1.08,1.04,–,–,–
CTCTAT,1.17,1.18,1.13,–,–
GCTAGT,0.961,1.03,1.02,–,–
TTGGTA,1.13,1.2,–,–,–
CGCGAA,0.99,0.989,0.987,–,–
CCTTCC,3.03,2.57,2.55,–,–
AGATAA,0.992,0.976,1.04,–,–
ATACGG,1.23,1.24,1.21,–,–
TCGACG,1.04,1.02,–,–,–
TAGTTC,1.45,1.46,–,–,–
TGATGT,1.13,1.21,–,–,–
CGCTTA,1.15,1.12,1.24,–,–
CGAATG,0.907,1.02,0.986,–,–
TCTACC,1.61,1.67,1.57,–,–
GTAGCA,0.99,1.08,1.11,–,–
GTTATC,1.1,1.09,0.962,–,–
TCATGG,1.15,1.14,0.977,–,–
CCCGGC,1.15,1.11,1.19,–,–
TAGTTG,0.961,1.02,0.904,–,–
CATTAC,1.06,1.2,1.18,–,–
TAGGAA,1.17,1.09,1.13,–,–
TTCTAG,1.33,1.3,1.2,–,–

Sequence,binding signal (ERG),binding signal (ETV4),binding signal (ETV1),binding signal (ELF1),binding signal (ERF)
GCCCGA,1.01,0.988,0.971,–,–
ATATAG,1.19,1.05,1.17,–,–
GTATTG,0.998,1.06,0.991,–,–
TAGAAT,1.03,1.06,0.978,–,–
GTATGG,0.975,1.02,1.16,–,–
TCGCGG,0.946,0.984,0.963,–,–
GATTAA,0.963,1.04,0.965,–,–
GTATAC,1.24,1.25,1.31,–,–
TCATTG,0.938,0.941,0.946,–,–
GTCTAA,1.09,1.1,1.11,–,–
TAACGC,1.17,1.16,1.12,–,–
TGATCA,0.982,1.03,0.997,–,–
ATCACG,0.945,1.09,1.02,–,–
GCAAAC,0.983,1.02,1.03,–,–
TTCCAT,1.25,1.31,1.25,–,–
GTGCCT,0.995,1.02,0.899,–,–
CCAACC,1.09,1.13,1.04,–,–
AAGCGC,1.13,1.14,1.09,–,–
TGTCTG,1.05,1.19,1.04,–,–
TAACGT,0.992,1.06,0.997,–,–
TGGCCA,1.05,1.18,0.973,–,–
ACTTGA,0.996,1.02,1.07,–,–
TAGTGC,0.96,1,1.09,–,–
CATTAG,0.963,1,0.905,–,–

Sequence,binding signal (ERG),binding signal (ETV4),binding signal (ETV1),binding signal (ELF1),binding signal (ERF)
CATCCA,0.924,0.963,0.96,–,–
AAGCCC,0.969,1.11,1.06,–,–
CGCACC,0.909,0.936,0.945,–,–
TGCCTA,0.999,1.07,0.999,–,–
AAAGAT,1.21,1.21,1.27,–,–
CGAAGG,0.812,0.942,0.914,0.966,0.955
GTTGTC,0.81,0.856,0.927,0.913,0.925
CGCGCG,0.939,1.03,0.982,0.975,0.933
CCCAGA,0.932,0.841,0.866,0.875,0.872
CAAGCC,0.911,1.01,0.99,0.969,0.99
TGGCGC,0.95,1,0.876,0.917,0.973
CAGTTC,0.993,0.962,0.965,0.943,0.919
ACAGTT,0.821,0.764,0.808,0.831,0.902
CCGGCG,1.09,1.04,0.965,0.972,0.982
ACCAAA,0.969,1.06,0.956,1.04,1.03
TGATAA,0.913,0.997,1.07,1,0.98
GCCACC,0.85,0.952,0.965,0.914,0.858
GCGCAC,0.849,0.897,0.877,0.923,0.923
GCCGCA,0.997,0.926,0.95,1.04,1.07
GTGCGC,0.945,1,0.913,0.93,0.937
AACAGA,0.994,0.981,0.99,0.928,0.932
GCAGGT,0.941,0.826,0.925,0.842,0.889
CTGAGG,0.785,0.906,0.875,0.871,0.883
CGCGTA,0.965,0.977,0.949,0.941,0.923

# Complete entries, quoted from the list. Values in the order: binding signal (ERG) | binding signal (ETV4) | binding signal (ETV1) | binding signal (ELF1) | binding signal (ERF)
# CATTAC in the list: 1.06 | 1.2 | 1.18 | – | –
# GCCACC in the list: 0.85 | 0.952 | 0.965 | 0.914 | 0.858
# CATCCA in the list: 0.924 | 0.963 | 0.96 | – | –

# For reference, some entries already given:
Sequence,binding signal (ERG),binding signal (ETV4),binding signal (ETV1),binding signal (ELF1),binding signal (ERF)
ACCAAA,0.969,1.06,0.956,1.04,1.03
TGATAA,0.913,0.997,1.07,1,0.98

# Later entries

Sequence,binding signal (ERG),binding signal (ETV4),binding signal (ETV1),binding signal (ELF1),binding signal (ERF)
CTTGAG,0.974,0.911,0.905,0.944,0.904
ATCAGA,0.92,0.917,0.864,0.947,0.945
GTGGTC,0.882,0.805,0.83,0.857,0.931
ACATCG,0.954,1.06,0.935,1.06,1.11
AGAAGT,0.999,1.05,1.05,0.992,1.05
GATAAA,0.966,0.932,0.954,0.957,0.943
AGATAT,0.983,0.974,0.95,0.979,0.956
GTTGAA,0.829,0.825,0.841,0.923,0.875
GTATGA,0.922,0.996,0.916,0.917,0.975
CATCAG,0.962,0.92,0.886,0.929,0.899
CTTATT,1.53,1.51,1.52,1.5,1.44
GCAAGC,0.87,0.872,0.943,0.955,0.899
AGTTTG,0.872,0.885,0.978,0.89,1.01
ATAAGT,0.972,1.03,0.982,1.08,0.989
GGCCTG,0.812,0.918,0.894,0.878,0.956
GTTGGT,0.891,0.907,0.996,0.965,0.973
TGTTAG,0.881,0.956,0.969,0.879,0.987
GTGGTA,0.942,0.99,0.879,0.909,0.998
ATAGGT,1.01,0.975,1.03,0.974,0.972
GCCTGG,0.959,0.989,0.987,0.96,0.946
ATAGTG,0.893,0.903,0.889,0.857,0.969
GATCAT,0.961,0.95,0.958,1.01,–
CCAGAA,0.983,0.92,0.969,0.997,0.908
GAATAG,0.94,0.91,0.995,0.973,–
